The target of the assay is HsDus2^dusD (Dus domain of human dihydrouridine synthase 2: TIM barrel and alpha-helical sub-domain) (human) (UniProt Q9NX74). As to the kind of experiment: SEC + crystal structure; gel filtration on Superdex S200 in 25 mM Tris pH 8, 150 mM NaCl; crystal in space group I222 with one molecule in the asymmetric unit; both purified. Background: In gel filtration, larger molecules generally elute earlier.

Results are given in words; binding and its absence hold for the method and conditions named.

B1: HsDus2^dusD (Dus domain of human dihydrouridine synthase 2: TIM barrel and alpha-helical sub-domain) (domain or fragment, UniProt Q9NX74 14-333)
chain: LILAPMVRVGTLPMRLLALDYGADIVYCEELIDLKMIQCKRVVNEVLSTVDFVAPDDRVVFRTCEREQNRVVFQMGTSDAERALAVARLVENDVAGIDVNMGCPKQYSTKGGMGAALLSDPDKIEKILSTLVKGTRRPVTCKIRILPSLEDTLSLVKRIERTGIAAIAVHGRKREERPQHPVSCEVIKAIADTLSIPVIANGGSHDHIQQYSDIEDFRQATAASSVMVARAAMWNPSIFLKEGLRPLEEVMQKYIRYAVQYDNHYTNTKYCLCQMLREQLESPQGRLLHAAQSSREICEAFGLGAFYEETTQELDAQQAR
On to B1, for which the binding result is “no binding”.
